This passage reports NP40-soluble protein abundance results from the supplement of paper PMC6411743.

Protein sequences, listed by entry. Tags and fused reporters are not part of them. Lines headed by an entry give the natural chain unless they say otherwise; changes in a name come on top.
UniProt Q14146: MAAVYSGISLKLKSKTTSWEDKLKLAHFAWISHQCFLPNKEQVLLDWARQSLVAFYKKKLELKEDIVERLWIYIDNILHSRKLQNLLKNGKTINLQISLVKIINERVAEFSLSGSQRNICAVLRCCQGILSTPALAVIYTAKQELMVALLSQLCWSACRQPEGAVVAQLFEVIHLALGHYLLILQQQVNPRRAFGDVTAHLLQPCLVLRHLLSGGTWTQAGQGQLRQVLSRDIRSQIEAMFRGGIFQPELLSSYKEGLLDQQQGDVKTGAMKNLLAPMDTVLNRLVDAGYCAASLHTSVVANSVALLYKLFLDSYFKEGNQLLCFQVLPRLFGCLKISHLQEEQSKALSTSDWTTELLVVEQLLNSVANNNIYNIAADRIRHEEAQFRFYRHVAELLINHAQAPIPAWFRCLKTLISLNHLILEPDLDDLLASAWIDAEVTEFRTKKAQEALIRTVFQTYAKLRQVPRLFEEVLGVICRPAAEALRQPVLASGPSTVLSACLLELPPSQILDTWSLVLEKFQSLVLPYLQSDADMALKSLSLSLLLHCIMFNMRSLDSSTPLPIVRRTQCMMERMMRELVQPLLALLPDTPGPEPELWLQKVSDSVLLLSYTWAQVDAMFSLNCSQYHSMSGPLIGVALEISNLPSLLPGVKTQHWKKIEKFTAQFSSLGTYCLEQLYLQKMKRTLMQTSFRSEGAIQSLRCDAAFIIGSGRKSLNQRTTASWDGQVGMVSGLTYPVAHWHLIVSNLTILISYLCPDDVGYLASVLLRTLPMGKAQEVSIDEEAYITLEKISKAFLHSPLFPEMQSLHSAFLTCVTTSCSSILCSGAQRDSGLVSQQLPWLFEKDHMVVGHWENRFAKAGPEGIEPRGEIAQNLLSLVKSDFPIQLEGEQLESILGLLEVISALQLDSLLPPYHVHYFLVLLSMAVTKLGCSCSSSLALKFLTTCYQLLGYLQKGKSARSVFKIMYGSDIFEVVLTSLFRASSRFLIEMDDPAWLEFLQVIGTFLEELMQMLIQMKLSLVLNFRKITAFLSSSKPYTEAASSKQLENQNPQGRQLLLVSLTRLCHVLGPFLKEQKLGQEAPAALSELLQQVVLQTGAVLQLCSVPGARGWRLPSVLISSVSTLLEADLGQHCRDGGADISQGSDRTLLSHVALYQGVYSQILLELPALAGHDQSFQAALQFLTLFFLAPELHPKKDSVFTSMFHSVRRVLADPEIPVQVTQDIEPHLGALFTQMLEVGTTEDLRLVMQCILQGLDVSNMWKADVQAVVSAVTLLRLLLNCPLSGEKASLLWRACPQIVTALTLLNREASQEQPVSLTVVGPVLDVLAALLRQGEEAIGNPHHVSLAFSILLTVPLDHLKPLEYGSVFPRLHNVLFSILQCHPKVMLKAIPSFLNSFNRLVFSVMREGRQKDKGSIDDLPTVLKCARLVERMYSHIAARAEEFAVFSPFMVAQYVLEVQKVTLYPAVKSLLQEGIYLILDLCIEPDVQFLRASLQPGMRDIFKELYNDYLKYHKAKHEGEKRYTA
UniProt Q02880: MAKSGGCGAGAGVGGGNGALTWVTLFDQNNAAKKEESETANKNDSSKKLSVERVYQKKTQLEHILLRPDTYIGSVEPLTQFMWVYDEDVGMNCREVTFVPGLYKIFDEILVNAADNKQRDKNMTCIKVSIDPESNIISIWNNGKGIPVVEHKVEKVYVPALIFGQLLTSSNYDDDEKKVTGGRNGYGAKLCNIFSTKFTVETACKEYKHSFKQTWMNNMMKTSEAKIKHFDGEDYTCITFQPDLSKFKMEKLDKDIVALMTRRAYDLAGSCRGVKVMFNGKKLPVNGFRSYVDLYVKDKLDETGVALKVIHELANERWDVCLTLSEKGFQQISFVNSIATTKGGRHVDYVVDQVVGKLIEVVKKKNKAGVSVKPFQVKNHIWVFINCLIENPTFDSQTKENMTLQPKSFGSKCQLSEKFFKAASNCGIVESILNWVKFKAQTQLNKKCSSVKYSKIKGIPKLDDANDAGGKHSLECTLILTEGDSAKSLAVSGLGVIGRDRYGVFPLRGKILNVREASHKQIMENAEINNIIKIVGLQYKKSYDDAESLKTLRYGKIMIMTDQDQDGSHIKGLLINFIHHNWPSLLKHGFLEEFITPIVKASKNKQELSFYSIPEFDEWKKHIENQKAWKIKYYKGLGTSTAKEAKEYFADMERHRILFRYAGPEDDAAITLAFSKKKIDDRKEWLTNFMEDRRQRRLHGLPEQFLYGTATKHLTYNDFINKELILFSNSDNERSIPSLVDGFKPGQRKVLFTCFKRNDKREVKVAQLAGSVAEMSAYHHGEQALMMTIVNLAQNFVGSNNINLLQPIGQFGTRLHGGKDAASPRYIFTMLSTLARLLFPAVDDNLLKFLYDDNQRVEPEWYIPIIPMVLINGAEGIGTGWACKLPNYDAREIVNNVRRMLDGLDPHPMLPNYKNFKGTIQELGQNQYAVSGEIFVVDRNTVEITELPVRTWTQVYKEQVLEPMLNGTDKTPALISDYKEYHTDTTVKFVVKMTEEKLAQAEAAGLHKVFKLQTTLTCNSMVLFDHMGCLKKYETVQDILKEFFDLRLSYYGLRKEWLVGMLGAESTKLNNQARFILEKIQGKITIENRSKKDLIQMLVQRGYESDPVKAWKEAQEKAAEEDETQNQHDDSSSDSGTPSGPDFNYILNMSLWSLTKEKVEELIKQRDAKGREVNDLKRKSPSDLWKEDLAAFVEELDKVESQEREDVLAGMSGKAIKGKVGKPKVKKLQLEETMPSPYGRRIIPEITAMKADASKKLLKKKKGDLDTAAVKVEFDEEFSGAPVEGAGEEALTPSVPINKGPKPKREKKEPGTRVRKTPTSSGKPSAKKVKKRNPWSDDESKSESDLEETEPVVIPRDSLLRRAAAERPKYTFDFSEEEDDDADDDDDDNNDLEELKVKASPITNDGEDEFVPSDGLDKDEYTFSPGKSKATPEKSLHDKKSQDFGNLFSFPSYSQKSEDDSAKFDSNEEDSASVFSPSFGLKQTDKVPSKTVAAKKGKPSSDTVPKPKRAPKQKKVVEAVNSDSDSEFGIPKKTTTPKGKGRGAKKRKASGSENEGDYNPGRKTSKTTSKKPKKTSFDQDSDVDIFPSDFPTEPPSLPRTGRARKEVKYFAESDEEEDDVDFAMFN
UniProt Q04637, whole entry: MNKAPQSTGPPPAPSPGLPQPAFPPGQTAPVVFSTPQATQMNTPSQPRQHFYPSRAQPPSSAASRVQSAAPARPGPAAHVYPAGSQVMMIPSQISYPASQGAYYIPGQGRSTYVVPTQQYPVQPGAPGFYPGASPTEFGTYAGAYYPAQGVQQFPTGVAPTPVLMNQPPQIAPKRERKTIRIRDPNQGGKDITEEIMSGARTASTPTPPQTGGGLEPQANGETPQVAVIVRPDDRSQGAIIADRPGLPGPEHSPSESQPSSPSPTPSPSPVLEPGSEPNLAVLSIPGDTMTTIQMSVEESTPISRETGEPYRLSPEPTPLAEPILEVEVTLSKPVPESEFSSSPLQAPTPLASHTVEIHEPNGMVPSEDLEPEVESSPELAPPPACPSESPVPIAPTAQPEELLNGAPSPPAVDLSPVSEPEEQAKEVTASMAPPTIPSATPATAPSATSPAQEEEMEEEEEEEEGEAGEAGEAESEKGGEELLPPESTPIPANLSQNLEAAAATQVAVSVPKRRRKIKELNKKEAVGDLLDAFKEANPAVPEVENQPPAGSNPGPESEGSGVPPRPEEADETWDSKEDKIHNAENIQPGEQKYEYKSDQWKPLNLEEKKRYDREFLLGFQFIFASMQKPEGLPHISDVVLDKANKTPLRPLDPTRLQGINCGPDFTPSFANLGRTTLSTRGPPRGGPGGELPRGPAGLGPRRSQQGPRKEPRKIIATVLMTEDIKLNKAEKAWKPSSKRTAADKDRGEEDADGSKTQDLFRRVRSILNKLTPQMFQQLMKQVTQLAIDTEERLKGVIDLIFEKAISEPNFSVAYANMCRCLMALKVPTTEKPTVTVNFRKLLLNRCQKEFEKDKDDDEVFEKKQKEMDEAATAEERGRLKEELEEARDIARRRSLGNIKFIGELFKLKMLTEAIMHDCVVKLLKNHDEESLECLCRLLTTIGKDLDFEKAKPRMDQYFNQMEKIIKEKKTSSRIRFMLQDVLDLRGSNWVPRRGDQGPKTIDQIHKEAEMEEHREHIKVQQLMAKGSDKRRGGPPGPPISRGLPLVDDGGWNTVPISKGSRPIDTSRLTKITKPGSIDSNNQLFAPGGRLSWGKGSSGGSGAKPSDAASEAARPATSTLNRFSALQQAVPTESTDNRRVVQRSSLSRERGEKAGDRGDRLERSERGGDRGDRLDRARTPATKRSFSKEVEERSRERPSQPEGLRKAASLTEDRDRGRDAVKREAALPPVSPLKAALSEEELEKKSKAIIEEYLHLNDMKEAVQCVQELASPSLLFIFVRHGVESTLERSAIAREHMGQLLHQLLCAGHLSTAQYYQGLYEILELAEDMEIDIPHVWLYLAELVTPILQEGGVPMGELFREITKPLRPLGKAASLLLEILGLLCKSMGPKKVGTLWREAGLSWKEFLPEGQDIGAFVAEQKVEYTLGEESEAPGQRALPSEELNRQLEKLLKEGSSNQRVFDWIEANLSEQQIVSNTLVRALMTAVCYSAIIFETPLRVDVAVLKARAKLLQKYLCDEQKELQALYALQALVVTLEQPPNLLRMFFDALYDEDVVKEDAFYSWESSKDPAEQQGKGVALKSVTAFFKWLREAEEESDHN
UniProt Q0VD83: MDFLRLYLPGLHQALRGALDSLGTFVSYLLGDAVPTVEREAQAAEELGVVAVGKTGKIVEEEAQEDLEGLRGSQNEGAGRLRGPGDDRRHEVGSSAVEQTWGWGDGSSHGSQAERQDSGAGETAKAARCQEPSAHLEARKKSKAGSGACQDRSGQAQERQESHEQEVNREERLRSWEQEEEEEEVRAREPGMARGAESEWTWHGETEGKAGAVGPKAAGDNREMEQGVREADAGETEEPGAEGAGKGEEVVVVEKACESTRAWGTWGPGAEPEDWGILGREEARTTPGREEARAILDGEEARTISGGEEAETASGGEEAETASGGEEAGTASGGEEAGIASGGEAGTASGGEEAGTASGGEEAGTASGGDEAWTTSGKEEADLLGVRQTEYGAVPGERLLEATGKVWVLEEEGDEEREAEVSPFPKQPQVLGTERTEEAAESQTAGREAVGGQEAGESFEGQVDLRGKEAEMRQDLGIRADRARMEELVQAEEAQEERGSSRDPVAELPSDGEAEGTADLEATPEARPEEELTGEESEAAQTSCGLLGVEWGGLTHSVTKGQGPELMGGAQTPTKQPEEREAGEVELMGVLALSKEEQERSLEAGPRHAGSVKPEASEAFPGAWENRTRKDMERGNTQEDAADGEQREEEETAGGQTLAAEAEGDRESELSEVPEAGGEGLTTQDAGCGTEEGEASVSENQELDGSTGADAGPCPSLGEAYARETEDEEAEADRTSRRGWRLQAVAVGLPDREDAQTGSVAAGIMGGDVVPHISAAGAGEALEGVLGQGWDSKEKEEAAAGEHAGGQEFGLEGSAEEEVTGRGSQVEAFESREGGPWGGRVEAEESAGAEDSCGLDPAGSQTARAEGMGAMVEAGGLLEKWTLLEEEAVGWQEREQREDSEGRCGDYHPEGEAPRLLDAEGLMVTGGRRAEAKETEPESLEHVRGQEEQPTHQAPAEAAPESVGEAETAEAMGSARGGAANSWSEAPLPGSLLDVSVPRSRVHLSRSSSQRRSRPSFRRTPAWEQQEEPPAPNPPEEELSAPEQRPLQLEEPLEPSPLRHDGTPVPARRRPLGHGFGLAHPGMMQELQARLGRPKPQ

± gives the standard deviation of the averaged measurements. Some of the results follow.

Compound in the assay: Nc1nc2c(ncn2[C@@H]2O[C@H](COP(=O)(O)OP(=O)(O)OP(=O)(O)O)[C@@H](O)[C@H]2O)c(=O)[nH]1 [guanosine triphosphate]
The assay can be described thus: NP40-soluble protein abundance relative to vehicle (solubility fold change) (ratio); higher = more soluble protein in presence of GTP. Here is the method:
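Solubility proteome profiling in Jurkat crude lysate. Lysate was treated with Mg-GTP (0.1-10 mM) for 10 min at room temperature and 3 min at 37 °C, then solubilised with 0.8% NP40 and benzonase, followed by ultracentrifugation. Proteins were quantified by TMT10 LC-MS/MS; the value is the NP40-soluble abundance relative to the NP40-processed vehicle, from 3 independent experiments.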

Take URB2 (UniProt Q14146): the NP40-soluble protein abundance runs as follows: (concentration: 0.1mM) 1.21 ± 0.18; (concentration: 0.5mM) 1.08 ± 0.28; (concentration: 1mM) 1.11 ± 0.23; (concentration: 2mM) 1.29 ± 0.25; (concentration: 4mM) 1.39 ± 0.2; (concentration: 6mM) 1.45 ± 0.24. Further, the NP40-soluble protein abundance runs as follows: (concentration: 8mM) 1.6 ± 0.34; (concentration: 10mM) 1.63 ± 0.34.

UniProt Q02880 and related entries: the NP40-soluble protein abundance was 1.08 ± 0.06 (concentration: 0.1mM); 1.09 ± 0.065 (concentration: 0.5mM); 1.21 ± 0.06 (concentration: 1mM); 1.37 ± 0.11 (concentration: 2mM); 1.68 ± 0.17 (concentration: 4mM); 1.85 ± 0.27 (concentration: 6mM). In addition, the NP40-soluble protein abundance (concentration: 8mM) was found to be 1.99 ± 0.26 and the NP40-soluble protein abundance (concentration: 10mM) was 2.08 ± 0.34.

UniProt Q14157 and related entries: the NP40-soluble protein abundance by setting is: (concentration: 0.1mM) 0.924 ± 0.065; (concentration: 0.5mM) 0.926 ± 0.086; (concentration: 1mM) 0.967 ± 0.06; (concentration: 2mM) 0.936 ± 0.11; (concentration: 4mM) 0.937 ± 0.087; (concentration: 6mM) 1.01 ± 0.1. The NP40-soluble protein abundance by setting is: (concentration: 8mM) 1.03 ± 0.058; (concentration: 10mM) 1.02 ± 0.1.

“UniProt Q04637-4|Q04637-5|Q04637-9|E7EUU4 and related entries”: the NP40-soluble protein abundance (concentration: 0.1mM) worked out at 1 ± 0.051; the NP40-soluble protein abundance (concentration: 0.5mM) worked out at 1.04 ± 0.054; the NP40-soluble protein abundance (concentration: 1mM) amounted to 1.06 ± 0.048; the NP40-soluble protein abundance (concentration: 2mM) amounted to 1.05 ± 0.058; the NP40-soluble protein abundance (concentration: 4mM) was 1.1 ± 0.054; the NP40-soluble protein abundance (concentration: 6mM) was 1.1 ± 0.05. Further, the NP40-soluble protein abundance is, setting by setting: (concentration: 8mM) 1.16 ± 0.073; (concentration: 10mM) 1.16 ± 0.084.

Regarding UniProt Q0VD83 and related entries, the NP40-soluble protein abundance (concentration: 0.1mM) worked out at 0.831 ± 0.12; the NP40-soluble protein abundance (concentration: 0.5mM) amounted to 0.803 ± 0.038; the NP40-soluble protein abundance (concentration: 1mM) came to 0.853 ± 0.1; the NP40-soluble protein abundance (concentration: 2mM) stood at 0.7891 ± 0.0034; the NP40-soluble protein abundance (concentration: 4mM) came out at 0.789 ± 0.13; the NP40-soluble protein abundance (concentration: 6mM) stood at 0.741 ± 0.062. The NP40-soluble protein abundance came out at 0.813 ± 0.096 (concentration: 8mM) and 0.792 ± 0.097 (concentration: 10mM).
